{"source": "patent US20250009924A1", "about": "“Indane Derivatives for Malodor Counteraction” (Firmenich SA, priority 2015, published 2025)", "assay": "Air dilution olfactometry sensory panel, indole vs indole + compound", "type": "in vivo, human", "details": "iso-intense levels (medium perceived intensity)", "experimental": "Air dilution olfactometry was used to measure all psychophysical data of individual and mixed odorants. Odorized flows of air with precisely set concentrations were prepared by the evaporation of a known flux of odorant in a determined flow of air. The flux of odorant was delivered through a microsyringe operated by a calibrated micromotor into a heated vessel under a steady nitrogen flow. The odorant was vaporized and swept away by the nitrogen, and this primary flow was later diluted with humidified air to the desired concentration. Odorants can be presented one by one in olfactometers (see as a reference “Multidimensional visualization of physical and perceptual data leading to a creative approach in fragrance development”, C. Vuilleumier, M. van de Waal, H. Fontannaz, I. Cayeux and P. A. Rebetez, in Perfumer & Flavourist, 33, 55 (2008)); alternatively, a machine blending up to 12 flows of odorants in variable and adjustable proportions could be used. A sniffing outlet delivered a continuous and adjustable odorized air flow. The upper working limit was determined by the vapor pressure of the odorants at room temperature. The odorized flow was delivered at a temperature of 26° C., close to the temperature within the nose. The combination of air (540 l/h) and nitrogen (60 l/h) represented a total gas flow of 600 l/h with a relative humidity of 50%. The speed of injection of the solutions in the evaporation chamber was modulated and controlled for each subject and adjusted to obtain a medium perceived intensity (see above reference, for instance FIG. 4).\nStandardized psychophysical procedures were used to determine olfactory detection thresholds (triangle testing) or perceived intensity, after a training period (see above reference).\nA method was designed as an iterative process to obtain dose-response relationship and odor detection threshold of perfumery ingredients or malodorants with a minimum number of experiments (see FIG. 5 in the above reference).\nFIG. 2 reports the radar plot of indole alone and indole+compound 1 obtained with a panel of 13 persons using a sensory protocol to evaluate the potential antagonists versus indole. The protocol involves two steps: • Step 1: the participants evaluated the tested ingredients and indole independently to adjust their individualized concentrations by changing the rate of injection (see above description and reference) to elicit a medium intensity perception for each chemical. These concentrations, corresponding to iso-intense levels, were applied in the second step of the process. The range of concentrations to be submitted to subjects was determined from dose-response relationships for the selected ingredients and indole. In the present experiment the molar ratio Compound 1/indole varied according to the individuals from about 1/1 to 10/1 (typical preferred individual range is between 2.5/1 and 4.5/1). • Step 2: Blind sensory evaluations were set; no information was disclosed to the participants on the submitted odorous stimuli. The subjects had to evaluate first indole alone at its individualized concentration and rate the following three descriptors on a linear labeled scale: • Pleasantness (From «Very unpleasant» to «Very pleasant») • Freshness (From «No Freshness» to «Very fresh») • Malodor character: Animal/Fecal/Tar (From «No . . . » to «Very . . . »)\nThe next submission, 30 seconds after the previous one to avoid odor adaptation, involved the simultaneous injection of indole and of the tested ingredient at individualized concentrations. The same descriptors were rated."}
{"smiles": "Cc1ccc2c(c1)CC(C)(CO)C2", "note": "(stereo not shown) [Compound 1, 2,5-dimethyl-2-indanemethanol]", "values": [{"measurement": "Compound/Indole, median of individual molar concentrations ratios", "result": 3.0}]}
{"smiles": "COCC1(C)Cc2ccc(C)cc2C1", "note": "(stereo not shown) [Compound 2, (2,5-dimethyl-2,3-dihydro-1H-inden-2-yl)methyl methyl ether]", "values": [{"measurement": "Compound/Indole, median of individual molar concentrations ratios", "result": 23.9}]}
{"smiles": "CC1(CO)Cc2ccccc2C1", "note": "[Compound 3, (2-methyl-2,3-dihydro-1H-inden-2-yl)methanol]", "values": [{"measurement": "Compound/Indole, median of individual molar concentrations ratios", "result": 26.5}]}
{"smiles": "Cc1ccc2c(c1)CC(CO)C2", "note": "(stereo not shown) [Compound 4, (5-methyl-2,3-dihydro-1H-inden-2-yl)methanol]", "values": [{"measurement": "Compound/Indole, median of individual molar concentrations ratios", "result": 12.1}]}
{"smiles": "CC(=O)OCC1(C)Cc2ccccc2C1", "note": "[Compound 5, (2-methyl-2,3-dihydro-1H-inden-2-yl)methyl acetate]", "values": [{"measurement": "Compound/Indole, median of individual molar concentrations ratios", "result": 51.1}]}
{"smiles": "CC(=O)C1(C)Cc2ccc(C)cc2C1", "note": "(stereo not shown) [Compound 6, 1-(2,5-dimethyl-2,3-dihydro-1H-inden-2-yl)ethanone]", "values": [{"measurement": "Compound/Indole, median of individual molar concentrations ratios", "result": 10.7}]}
{"smiles": "Cc1cc(C)c2c(c1)CC(C)(CO)C2", "note": "(stereo not shown) [Compound 16, (2,4,6-trimethyl-2,3-dihydro-1H-inden-2-yl)methanol]", "values": [{"measurement": "Compound/Indole, median of individual molar concentrations ratios", "result": 4.9}]}
